The target of this test is high mobility group box 1 (HMGB1) (human (endogenous in SiHa or HeLa cervical cancer cells)) (UniProt P09429). Put plainly: co-IP; HMGB1 immunoprecipitated (Protein A/G Plus Agarose Immunoprecipitation Kit), BRG1 detected by western blot; cervical cancer cells with LNMAS overexpression or LNMAS knockdown. (In western blotting, separated proteins are transferred to a membrane and probed.)

By UniProt entry, the sequences of proteins in these tests, tags left out.
UniProt P09429: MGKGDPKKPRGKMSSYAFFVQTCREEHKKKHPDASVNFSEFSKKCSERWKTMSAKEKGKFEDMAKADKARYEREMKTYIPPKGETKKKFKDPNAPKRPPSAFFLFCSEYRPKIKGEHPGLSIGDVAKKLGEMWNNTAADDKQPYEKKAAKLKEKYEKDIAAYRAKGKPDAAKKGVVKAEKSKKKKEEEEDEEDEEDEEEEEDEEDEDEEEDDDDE
UniProt P51532: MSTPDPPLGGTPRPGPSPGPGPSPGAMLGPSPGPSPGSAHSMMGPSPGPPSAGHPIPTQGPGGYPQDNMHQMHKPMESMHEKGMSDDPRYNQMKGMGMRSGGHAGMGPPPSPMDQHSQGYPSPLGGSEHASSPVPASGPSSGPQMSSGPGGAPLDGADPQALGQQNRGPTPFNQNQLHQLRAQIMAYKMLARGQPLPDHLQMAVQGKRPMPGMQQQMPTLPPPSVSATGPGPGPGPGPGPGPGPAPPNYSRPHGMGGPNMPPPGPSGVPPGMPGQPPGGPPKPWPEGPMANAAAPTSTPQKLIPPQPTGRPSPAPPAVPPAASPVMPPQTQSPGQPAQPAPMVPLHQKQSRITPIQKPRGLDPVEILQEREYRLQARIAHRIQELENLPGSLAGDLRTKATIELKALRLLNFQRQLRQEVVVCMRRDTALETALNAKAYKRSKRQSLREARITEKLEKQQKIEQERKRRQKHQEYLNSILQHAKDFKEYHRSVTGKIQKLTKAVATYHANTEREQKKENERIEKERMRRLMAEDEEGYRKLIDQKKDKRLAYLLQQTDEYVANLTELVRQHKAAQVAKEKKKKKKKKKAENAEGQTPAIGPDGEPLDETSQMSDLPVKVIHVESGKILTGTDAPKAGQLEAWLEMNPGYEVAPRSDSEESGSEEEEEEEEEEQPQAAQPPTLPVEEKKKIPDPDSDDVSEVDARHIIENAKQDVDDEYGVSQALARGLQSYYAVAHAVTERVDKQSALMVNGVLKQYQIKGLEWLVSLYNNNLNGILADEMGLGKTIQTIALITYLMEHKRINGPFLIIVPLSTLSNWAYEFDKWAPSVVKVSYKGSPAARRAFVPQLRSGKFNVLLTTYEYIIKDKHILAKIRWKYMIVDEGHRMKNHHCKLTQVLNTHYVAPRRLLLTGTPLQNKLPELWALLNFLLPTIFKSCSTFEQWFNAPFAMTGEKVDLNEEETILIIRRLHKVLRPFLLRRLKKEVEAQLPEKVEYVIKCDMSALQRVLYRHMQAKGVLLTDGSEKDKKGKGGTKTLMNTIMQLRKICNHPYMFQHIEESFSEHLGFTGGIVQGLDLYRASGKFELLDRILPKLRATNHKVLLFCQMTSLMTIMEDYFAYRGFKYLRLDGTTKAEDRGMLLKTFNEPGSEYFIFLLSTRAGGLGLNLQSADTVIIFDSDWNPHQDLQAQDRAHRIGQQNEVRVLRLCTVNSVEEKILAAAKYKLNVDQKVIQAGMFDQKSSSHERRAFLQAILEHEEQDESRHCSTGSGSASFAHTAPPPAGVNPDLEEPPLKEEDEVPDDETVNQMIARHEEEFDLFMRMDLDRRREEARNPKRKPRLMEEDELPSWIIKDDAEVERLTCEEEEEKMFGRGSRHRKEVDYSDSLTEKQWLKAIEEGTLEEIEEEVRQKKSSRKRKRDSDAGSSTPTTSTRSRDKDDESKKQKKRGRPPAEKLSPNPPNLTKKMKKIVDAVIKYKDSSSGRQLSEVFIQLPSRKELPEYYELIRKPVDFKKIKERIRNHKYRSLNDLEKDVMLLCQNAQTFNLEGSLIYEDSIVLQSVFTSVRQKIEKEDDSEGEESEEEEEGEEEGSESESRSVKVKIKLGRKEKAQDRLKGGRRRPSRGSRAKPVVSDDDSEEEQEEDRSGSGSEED

This note sets out measurements from publication PMC8956512.

No constants are given. Whether binding was seen depends on the method and setting. Binding seen in cells or lysates may run through a third protein. Some entries that bind do so weakly or less than the wild type.

For “BRG1, the core subunit of SWI/SNF complex (from UniProt P51532 1-1647)”, the binding result is on record as “binds”.
